Values from PubChem BioAssay AID1259254 (NCATS, 2017)

Screen: 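Finding genes that stop cells copying their DNA twice in one cycle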 (primary screen)
System: human HCT116 colorectal cancer cells
Knock-down reagent: single siRNA against human genes
Time to read-out: 3 days
Measurement: 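Nuclei stained with Hoechst and imaged; cell-cycle phase assigned by DNA content; G2 share scaled per plate, non-targeting siRNA 0%, GMNN siRNA 100%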
Scale: G2 robust z-score and G2 cells, % of GMNN control: higher = more G2 cells, more excess DNA replication
Active means: 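An siRNA counts as active if its G2 robust z-score lies at least 5 MADs above the screen median; here such calls match roughly 38% of GMNN control or more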
The whole screen tested about 59,000 reagents; this is a random part of them. About 1,550 of them (2.6%) were called active. 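G2 share is only a proxy for re-replication; each gene was hit by three separate siRNAs, and active genes were retested.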 The numbers tell different reagents against one gene apart. Not all columns of the deposit are shown. Not given: the amount of reagent.

CD300LG #1 scored G2 robust z-score -0.0558; G2 cells, % of GMNN control 2.58; inactive.
CD300LG #2 gave G2 robust z-score 0.989; G2 cells, % of GMNN control 9.93; inactive.
CD300LG #3 scored G2 robust z-score -0.169; G2 cells, % of GMNN control 1.78; inactive.
HSPA6 #1 scored G2 robust z-score 0.113; G2 cells, % of GMNN control 3.76; inactive.
With knock-down of HSPA6 #2 the results were G2 robust z-score -0.0567; G2 cells, % of GMNN control 2.57; inactive.
HSPA6 #3 gave G2 robust z-score -0.224; G2 cells, % of GMNN control 1.39; inactive.
Against MFNG #1 the deposit lists G2 robust z-score 5.29; G2 cells, % of GMNN control 40.2; active.
Against MFNG #2 the deposit lists G2 robust z-score -1.29; G2 cells, % of GMNN control -6.09; inactive.
MFNG #3 showed G2 robust z-score -1.39; G2 cells, % of GMNN control -6.81; inactive.
Knock-down of PBLD #1 gave: G2 robust z-score 0.2; G2 cells, % of GMNN control 4.38; inactive.
PBLD #2 gave G2 robust z-score 0.732; G2 cells, % of GMNN control 8.12; inactive.
With knock-down of PBLD #3 the results were G2 robust z-score -0.226; G2 cells, % of GMNN control 1.38; inactive.
Silencing of THRAP3P1 #1 resulted in: G2 robust z-score 1.11; G2 cells, % of GMNN control 10.8; inactive.
For THRAP3P1 #2, the values are G2 robust z-score -0.683; G2 cells, % of GMNN control -1.84; inactive.
Depletion of THRAP3P1 #3 came out at: G2 robust z-score 2.43; G2 cells, % of GMNN control 20.1; inactive.
KIAA1217 #1 gave G2 robust z-score -0.406; G2 cells, % of GMNN control 0.113; inactive.
KIAA1217 #2 gave G2 robust z-score -0.709; G2 cells, % of GMNN control -2.02; inactive.
Silencing of KIAA1217 #3 came out at: G2 robust z-score 1.35; G2 cells, % of GMNN control 12.5; inactive.
With knock-down of CISD1 #1 the results were G2 robust z-score 0.715; G2 cells, % of GMNN control 8; inactive.
After knock-down of CISD1 #2 the results were G2 robust z-score 0.75; G2 cells, % of GMNN control 8.24; inactive.
With knock-down of CISD1 #3, the record shows G2 robust z-score -1.04; G2 cells, % of GMNN control -4.37; inactive.
CHST8 #1 gave G2 robust z-score -0.966; G2 cells, % of GMNN control -3.83; inactive.
For CHST8 #2, the entry reads G2 robust z-score 1.24; G2 cells, % of GMNN control 11.7; inactive.
For CHST8 #3, the entry reads G2 robust z-score 0.188; G2 cells, % of GMNN control 4.29; inactive.
After knock-down of LINC00900 #1, the record shows G2 robust z-score -1.05; G2 cells, % of GMNN control -4.43; inactive.
Against LINC00900 #2 the deposit lists G2 robust z-score -0.282; G2 cells, % of GMNN control 0.984; inactive.
After knock-down of LINC00900 #3, the record shows G2 robust z-score -0.577; G2 cells, % of GMNN control -1.09; inactive.
After knock-down of PPOX #1, the screen gave G2 robust z-score 0.984; G2 cells, % of GMNN control 9.89; inactive.
PPOX #2 scored G2 robust z-score -0.371; G2 cells, % of GMNN control 0.354; inactive.
Silencing of PPOX #3 came out at: G2 robust z-score 6.1; G2 cells, % of GMNN control 45.9; active.

2 of these entries, reformatted.
{"target gene":"CISD1","reagent":1,"G2 robust z-score":0.715,"G2 cells, % of GMNN control":8,"Outcome":"inactive"}
{"target gene":"CISD1","reagent":2,"G2 robust z-score":0.75,"G2 cells, % of GMNN control":8.24,"Outcome":"inactive"}
